Values joined by “and” are separate entries in the source; they are usually repeats but may differ in a detail not shown here. Equal values may be shown once.
Test: peptide synthesis
Details: acetate, one disulfide bridge, sequence written open

Pmp-D-Tyr(Et)-Phe-Val-Asn-Cys-Pro-Arg(NH2)
crude purity (method not given) (oxidative folding step, run 1): 15% pure and 23% pure | oxidative folding yield (oxidative folding step, based on purity of the starting material): 38% | step yield (purification step): 97%
